Here are results for 1 compound from patent US10543178B2, “Dosage forms and related therapies” (PhilERA New Zealand Limited, priority 2002, dated 2020).

The subject of data set [1] is STZ diabetic rats. Nature of the data set: Isolated working heart: cardiac function after 7 weeks oral trientine in drinking water. To be noted: trientine weeks 7-13, mean ± SD.
Data set [2] relates to humans with T2DM. The experiment in a line: 6-month randomized double-blind placebo-controlled trial of oral trientine, LV mass by cardiac MRI. Conditions: 6 months - baseline, mean; trientine 600 mg twice-daily.

As to `NCCNCCNCCN` [trientine, N,N′-Bis(2-aminoethyl)-1,2-ethanediamine], the Final weight in data set [1] (STZ/D7: diabetic rats, n = 8) was determined as 290 ± 56 g; in data set [1] (Sham/D7: non-diabetic rats, n = 11), 563 ± 17 g. Also, in data set [2], the “Δ diastolic blood pressure” value is recorded as −3.9 mmHg. Besides, the “Δ systolic blood pressure” value in data set [2] is −3.5 mmHg.
